Data as given in patent publication US9872858B2, “Treatment of degenerations and light-induced damage to the retina” (BIOCODEX, priority 2014, dated 2018).

System: blue light-induced retinal degenerations or damages in rats
Assay: Scotopic electroretinogram (amplitude of wave a) after blue light-induced retinal degeneration
Format: in vivo, Sprague-Dawley albino male rats
Conditions: base = before first administration and induction
Method: This animal model is particularly representative, in addition to light-induced retinal damage, of age-related macular degeneration (AMD) and retinitis pigmentosa (see e.g Feng et al. (2012) International Journal of Ophthalmology 5:151-157).
72 Sprague-Dawley albino male rats obtained from Janvier were used for the study. When received, the rats were approximately 7 weeks old and weighed 180-200 g,
Induction was performed by exposure during 6 hours to a blue fluorescent light of 400 nm-540 nm wavelength in individual cages. The rats were kept in the dark for 36 hours prior to the induction and 24 hours after the induction, before returning to normal lighting conditions.
A scotopic electroretinogram (ERG) was performed by using the electrophysiological RETI-animal® (Roland Consult) system before the first administration (base) then on days 7 and 14 on both eyes of animals accustomed to the darkness. The animals were anesthetized with an intramuscular injection of a mixture of ketamine/xylazine. 15 minutes before the measurement, 1 drop of Mydriatictum® (0.5% tropicamide) was instilled to induce dilatation of the pupil. The amplitudes of wave a and wave b were measured for each eye and expressed as a percentage of the base amplitudes.
The ERG parameters are: • Gansfeld Q450C • Color: maximum white • Maximum intensity: 2.6 cd.s/m^2 (0 dB); duration: 0.24 ms; number of flashes: 1 • Filter: 50 Hz • Impedance threshold: 90 kΩ
A two-factor ANOVA test was applied to the average amplitudes of the wave a of both eyes for each measurement point. The effect of the products was determined using the Turkey's multiple comparison test; each group was compared to other groups. Differences were considered significant for p values less than 0.05.
Electroretinograms (ERG) allow to measure the amplitude of wave a, which results from the photo-activated hyperpolarization of photoreceptors. Thus, a reduction of the amplitude of wave a is an indicator of a retinal damage or degeneration associated with exposure to blue light.

Structure (SMILES)	Amplitude of wave a (mean ± standard deviation), Base (PBN 50 mg/kg group) [μV]	Amplitude of wave a (mean ± standard deviation), Base (EFX 12.5 mg/kg group) [μV]	Amplitude of wave a (mean ± standard deviation), Base (EFX 25 mg/kg group) [μV]	Amplitude of wave a (mean ± standard deviation), Base (EFX 50 mg/kg group) [μV]
CC(C)(C)[N+]([O-])=Cc1ccccc1 [PBN, Phenyl-N-tert-butylnitrone]	465 ± 67			
CCNC1=Nc2ccc(Cl)cc2C(C)(c2ccccc2)O1.Cl (stereo not shown) [EFX, 6-chloro-2-ethylamino-4-methyl-4-phenyl-4H-[3,1]benzoxazine hydrochloride]		465 ± 68	468 ± 70	461 ± 82
